Laboratory results: article PMC12040169 (PLOS Biology, 2025)
Some of the results follow.

tested on: T1, CTL2-GFP (C. trachomatis L2/434/Bu, GFP-expressing); design: species or system HeLa; Intracellular C. trachomatis growth in HeLa cells, bulk GFP fluorescence relative to DMSO; conditions: bulk GFP, single well; 28.5 h, 10 µM; inhibitor
T1 construct: L2/434/Bu, GFP-expressing

Row | Structure (SMILES) | % of control remaining [%]
1 | Nc1ncc(-c2ccccc2)nc1NC1CCOCC1 [CBK063748] | 195.453
2 | CN1CCN(S(=O)(=O)c2ccc(Br)cc2C(F)(F)F)CC1 [CBK062437] | 90.3016
3 | Cc1ccc(C(=O)O)cc1S(=O)(=O)N(CCO)CCO [CBK267335] | 156.614
4 | Cc1cc(Cl)cc(Br)c1OCCNCCN(C)C [CBK267791G] | 92.4375
5 | CC(C)CCn1c(=S)[nH]c2c(oc3ccccc32)c1=O [CBK288504] | 95.1188
6 | CC1CC(C)CN(C(=O)c2cc(S(=O)(=O)N3CCOCC3)ccc2Cl)C1 (stereo not drawn) [CBK305000] | 123.622
7 | O=C(O)C1C2C=CC(C2)C1C(=O)N1CCN(C(c2ccccc2)c2ccccc2)CC1 (stereo not drawn) [CBK262659] | 119.444
8 | COc1cc(-c2cnc3[nH]c(=O)n(C4CCOCC4)c3n2)cc(OC)c1OC [CBK064255] | 166.606
9 | COCCCOc1cncc(NC(C)C)n1 [CBK115880] | 122.878
10 | Cc1cccc(-c2ocnc2C(=O)NCCCn2ccnc2)c1 [CBK282418] | 126.939
11 | Cc1ccccc1N1CCN(C(=O)c2c(C)oc3cc4c(C(=O)N5CCN(c6ccccc6C)CC5)c(C)oc4cc23)CC1 [CBK264833] | 100
12 | Cc1ccc(-c2nc3cc(Cl)ccc3o2)cc1NC(=S)NC(=O)c1cccc(Cl)c1 [CBK264022] | 108.906
13 | CC(C)CCNC(=O)c1c(O)c2ccccc2[nH]c1=O [CBK159975] | 143.114
14 | Nc1nc(NCCOc2ccccc2Cl)cc(C2CC(N)C2)n1 (stereo not drawn) [CBK306825] | 95.7998
15 | CCc1cc(=O)[nH]c(-c2ccc(N3CC(C(N)=O)CCC3C)nc2)n1 (stereo not drawn) [CBK306448] | 90.5663
16 | COc1cc(-c2ccc3ccc(N)nc3n2)cc(OC)c1OC [CBK061866] | 131.231
17 | O=C(O)c1ccc(CSc2nnnn2-c2ccccc2)cc1 [CBK286726] | 115.993
18 | CC(C)NS(=O)(=O)c1ccc(NS(=O)(=O)c2ccc(F)c(C(=O)O)c2)cc1 [CBK297533] | 141.045
19 | Cc1ccccc1C(=O)NC(=S)Nc1sc2c(c1C(N)=O)CCC2 [CBK262107] | 87.8479
20 | COc1cc(OC)nc(C(NC(=O)C2CCN(Cc3ccccc3F)CC2)c2ccc(Cl)cc2)n1 (stereo not drawn) [CBK148152] | 124.695
21 | CCn1c(C)nc2cc(NC(=O)c3cnn(C)c3)ccc21 [CBK281837] | 143.15
22 | Nc1cccc(-c2nccnc2NCCc2ccccn2)c1 [CBK037512] | 113.781
23 | CC(C)N1CC[C@@H]2[C@H]1C(=O)NC[C@H](CCC(=O)Nc1ccccc1)N2C [CBK289030] | 138.301
24 | C[C@H](Nc1cncc(-c2cccc(C(=O)NCCO)c2)n1)c1ccccc1 [CBK066007] | 75.2403
25 | Cc1cc(CN(C)Cc2c(C)nn(-c3ccc(F)cc3)c2C)n[nH]1 [CBK281990] | 136.823
26 | C#CCNC(=O)CC[C@H]1CNC(=O)[C@@H]2[C@@H](CCN2Cc2ccc(C)cc2)N1C [CBK289036] | 165.35

Three records picked at random from those above, as already listed:
Row | Structure (SMILES) | % of control remaining [%]
8 | COc1cc(-c2cnc3[nH]c(=O)n(C4CCOCC4)c3n2)cc(OC)c1OC [CBK064255] | 166.606
11 | Cc1ccccc1N1CCN(C(=O)c2c(C)oc3cc4c(C(=O)N5CCN(c6ccccc6C)CC5)c(C)oc4cc23)CC1 [CBK264833] | 100
13 | CC(C)CCNC(=O)c1c(O)c2ccccc2[nH]c1=O [CBK159975] | 143.114

Next part

Row | Structure (SMILES) | % of control remaining [%]
27 | COC(=O)c1ccc(C)c(NS(=O)(=O)c2cc(Cl)ccc2Cl)c1 [CBK077971] | 112.406
28 | COC(=O)C(NC(=O)c1cnc(-c2ccc(Cl)cc2)c(-c2ccc(O)cc2)c1)c1ccccc1 (stereo not drawn) [CBK036723] | 121.321
29 | Cc1cccc(OCCn2c(SCCC(=O)O)nc3ccccc32)c1 [CBK264682] | 130.177
30 | COc1ccc([C@@]23CCCN(C(=O)Nc4ccc(C)c(F)c4)C[C@@H]2N(C)CC3)cc1OC [CBK056680T] | 94.1621
31 | Cc1cc(C(=O)NCc2cccnc2N(C)C2CCCCC2)nn1C [CBK306577] | 112.826
32 | Cc1onc(-c2ccccc2)c1CNC(=O)c1ccco1 [CBK144074] | 118.419
33 | COc1ccc(C2=NN(c3ccccc3)C(c3cn(-c4ccccc4)nc3-c3ccccc3)C2)cc1 (stereo not drawn) [CBK263230] | 123.202
34 | O=S(=O)(Nc1ccc(N2CCNCC2)nc1)c1ccc(F)cc1F [CBK000022C] | 56.9809
35 | COc1cc(C(=O)N2CCC3(CC2)CC(=O)c2cc(CN4CCN(C)CC4)ccc2O3)cc(OC)c1C [CBK169185] | 118.075
36 | COc1ccc(C)cc1NC(=O)Nc1nc(C)cs1 [CBK006565] | 100.917
37 | O=C1NC(=O)C(CCCCN2CCCC3(CCN(C(=O)Cc4c[nH]c5ccccc45)C3)C2)N1 (stereo not drawn) [CBK132059] | 121.645
38 | CCNC(=O)c1cc2c(=O)n3ccccc3nc2n1C [CBK287556] | 115.013
39 | CC(=O)Nc1ccc(S(=O)(=O)c2cc(O)ccc2O)cc1 [CBK261372] | 100
40 | O=C(c1cc(C2CC2)on1)N1CCc2ncc(Cl)cc2C1 [CBK284855] | 114.385
41 | Cc1cc(N)cc(C)c1O [CBK012062C] | 61.1511
42 | O=C(NCc1ccco1)NC(=O)c1ccc(Cl)cc1 [CBK269461] | 124.715
43 | OCCN(Cc1cccnc1)CC1(c2ccc(Cl)cc2)CC1 [CBK282943] | 69.5091
44 | CC(CN(C)C)C(=O)c1cn(C)c2ccccc12 (stereo not drawn) [CBK015540] | 166.52
45 | COCc1nnc(Sc2ccc(C(F)(F)F)cn2)s1 [CBK115219] | 105.356
46 | CN1CC=C(/C=C/C2=Cc3ccccc3OC2)CC1 [CBK283857] | 121.759
47 | COC(=O)c1ccc(NS(=O)(=O)Cc2ccccc2)cc1 [CBK028699] | 132.111
48 | CCC(CO)Nc1nccnc1-c1ccsc1 (stereo not drawn) [CBK036606] | 121.528
49 | COc1ccc(C(=O)Nc2ccccc2C(=O)N2CCOCC2)cc1Br [CBK269923] | 128.22
50 | Cc1cnc2[nH]c(C(F)(F)F)c(CN3CCCC(CO)C3)c2c1 (stereo not drawn) [CBK285167] | 105.251
51 | Nc1ncc(-c2cc(C(F)(F)F)cc(C(F)(F)F)c2)nc1NC1CCC(O)CC1 (stereo not drawn) [CBK063808] | 113.514
